# Reference: the supplement of paper PMC3334620
# Whole data set: some 33,000 sequences, median “E-score (-0.5 to 0.5)” near -0.0059, cut for the highest 2% near 0.26. The list shows a part of the results.
# Biological target: T1, Cin5 (UniProt P40917)
# T1 sequence: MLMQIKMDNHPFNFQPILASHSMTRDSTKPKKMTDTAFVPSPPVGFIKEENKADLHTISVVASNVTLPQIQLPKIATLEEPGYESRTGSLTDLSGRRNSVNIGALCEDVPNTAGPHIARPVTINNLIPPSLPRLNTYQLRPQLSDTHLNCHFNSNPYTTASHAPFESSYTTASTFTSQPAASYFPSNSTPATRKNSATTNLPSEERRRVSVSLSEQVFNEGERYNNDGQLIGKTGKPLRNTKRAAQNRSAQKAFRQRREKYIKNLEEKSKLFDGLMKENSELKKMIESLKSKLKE
# Test: PBM E-score (8-mer binding enrichment) (E-score (-0.5 to 0.5)); higher = stronger / more preferred TF binding
# Details: protein concentration: 100 nM; construct: GST-full length
# Method: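 Universal 'all 10-mer' protein binding microarrays (Agilent AMADID 015681) probed with GST-tagged S. cerevisiae TFs (full-length or DBD) made by in vitro transcription/translation (PURExpress), about 100-200 nM. Bound TF was detected with fluorescent anti-GST. Each ungapped 8-mer (which stands for itself and its reverse complement) is scored by the PBM enrichment score (E-score), a modified Wilcoxon-Mann-Whitney statistic from -0.5 to +0.5, computed with the Universal PBM Analysis Suite. Scale: above 0.35 generally sequence-specific binding.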
row,Sequence,PBM E-score
1,GCTTACCC,0.00966
2,AAGTATGC,-0.0503
3,ATATTTCG,0.242
4,CAACTCCG,-0.0459
5,AGCTAAGC,0.116
6,AACGTAGA,0.0698
7,CTCTTGCC,-0.143
8,ATCCGCAA,0.0144
9,AAAGCTCC,-0.131
10,AACACTCC,0.136
11,AACGGGTG,0.0993
12,ACCCGCTG,-0.114
13,CCCCGGCG,-0.256
14,CTCCGACC,-0.274
15,GAATGAAA,0.0982
16,CTTATAAG,-0.0612
17,CGGTGTCA,-0.17
18,ACTAGATG,-0.00897
19,CCTGCCAC,-0.0959
20,TCCGACAA,-0.0569
21,CTTTTCGC,0.0357
22,TCAAAACA,0.151
23,AATTTGTC,0.114
24,ATGCTCTA,-0.161
25,CGGGTGAG,-0.099

row,Sequence,PBM E-score
1,TATAAGAA,0.173
2,AGGTGCCG,-0.0281
3,GCCGAAGC,-0.165
4,CCGTAGAG,-0.26
5,ATGCCCAG,-0.161
6,CGCTAAAC,-0.16
7,CAGTAAGC,0.253
8,CGGGCATC,-0.28
9,CGGAAGTA,0.0445
10,GATAATAA,0.199
11,CCCCACCG,-0.0344
12,GATATTGC,0.132
13,AATGAGCA,0.0395
14,AGCCCCAG,-0.0735
15,GCGAAGAC,-0.146
16,CGTTCTTC,0.0221
17,GAAAACCC,0.0584
18,GTTCACCA,-0.0455
19,AATTCATC,0.0433
20,ATTCAAAC,0.0264
21,ACGGGAGA,-0.193
22,ACAGGTTA,-0.00071
23,CCCAACCA,0.0428
24,AGTAGTCG,-0.0294
25,TATGCTCA,0.132

row,Sequence,PBM E-score
1,ATGTCCAA,0.0429
2,TGCGTAAA,0.0908
3,CCTTGCAA,-0.163
4,GCTGTGAA,-0.00138
5,ATAGTTGG,-0.0107
6,AGTCCGAA,-0.103
7,GTGACGAA,0.0209
8,ACCGGGAC,-0.0537
9,CCCAAGGG,-0.307
10,AATAAGAG,0.146
11,AGGAGTAC,-0.164
12,AATTTTAT,0.228
13,CACCATTC,-0.0149
14,ACCAATGA,0.128
15,ACCATGCT,-0.0805
16,CAAGTTTC,0.0858
17,CTAGCTGC,-0.232
18,GCACTAGC,-0.125
19,CCGCCCTC,-0.0884
20,GACCAATA,0.0508
21,AGTGCCAT,-0.131
22,GGCTGCTA,-0.14
23,CCGTCGGA,-0.109
24,AGAGCAGC,-0.149
25,TCCATTCA,0.0889

# Part of the list above in a different format:
row	Sequence	PBM E-score
23	CCGTCGGA	-0.109
24	AGAGCAGC	-0.149
25	TCCATTCA	0.0889

# Retrieved one by one from the entries so far, two records:
row,Sequence,PBM E-score
16,CAAGTTTC,0.0858
1,ATGTCCAA,0.0429

# Further records follow.

row,Sequence,PBM E-score
1,CAACTCGG,0.059
2,GACTGACC,-0.307
3,ACCCACAA,0.185
4,AGCGGTCG,-0.291
5,ATGTTCTA,-0.0021
6,AAACTTGC,0.185
7,ACCTCCCA,-0.323
8,ATACGTCA,0.0869
9,ATCGGCCA,-0.105
10,ACCAGCCA,-0.114
11,CACGTACC,-0.0572
12,CGTGTCAC,-0.0988
13,GACGACGC,-0.118
14,AAGGCATT,-0.0905
15,CCTTATTA,0.254
16,AAAGGTGT,-0.0556
17,CAGGACTC,-0.136
18,AATTGACT,0.121
19,CCCCAGAG,-0.211
20,ACCCACTC,-0.00905
21,ATCGTCTC,-0.0356
22,ACTACTAC,0.00444
23,TGCATGCA,0.102
24,AGCTCGTA,-0.0127
25,CTTGTACC,0.00352

row,Sequence,PBM E-score
1,GCTTTCCC,-0.0623
2,CGGGTGTA,0.0316
3,TACAGCGA,-0.0916
4,ATTCAATG,0.141
5,AAATGGCT,0.109
6,AAGGTTAC,-0.028
7,GCCCGGCA,-0.234
8,ATGGGAGG,0.0204
9,CTCAACGA,-0.117
10,ATGACGCA,0.195
11,CGTGGCAC,-0.18
12,CCCAGCTC,-0.128
13,GAATCCTC,-0.19
14,CAGAGTCC,0.0247
15,CCCTAGCC,-0.0423
16,CTTTAGGC,-0.19
17,ACGTACAA,0.0354
18,AAGGTCGG,-0.093
19,AATAAGTG,0.0171
20,AGCTTCTA,-0.179
21,ACACATCT,0.0506
22,CCCACTAA,0.133
23,CTATTACC,-0.0809
24,ACGGGTAC,-0.139
25,AAGTAGAG,-0.126

# Part of the list above in a different format:
row | Sequence | PBM E-score
15 | CCCTAGCC | -0.0423
16 | CTTTAGGC | -0.19
17 | ACGTACAA | 0.0354
18 | AAGGTCGG | -0.093

# Next part:

row,Sequence,PBM E-score
1,GGGCTGAC,0.171
2,TAAAATGA,0.149
3,CCAGTGGC,-0.172
4,ACCGACTC,0.0464
5,CGTTCGAC,-0.14
6,TACCAGAA,0.21
7,AGAAATGA,0.0538
8,ATGACCCC,-0.0535
9,CTATGTGA,0.00689
10,CGAACATA,0.21
11,AGAACACA,0.0401
12,AGGTTAGC,-0.199
13,CAGTCAAG,0.0003
14,GCACCTAC,-0.243
15,TAGACCAA,0.138
16,GGATCCCA,-0.0297
17,TCAATGAA,0.159
18,AGACATAG,0.102
19,AGCGGCTA,-0.0605
20,ATTGCGCC,0.00682
21,CCGCTGAG,0.0353
22,GGGGGGAC,-0.458
23,ACTTGGAC,0.134
24,ACCTTCTC,0.0155
25,ACCTGCCG,-0.128

row,Sequence,PBM E-score
1,CAGTGATG,-0.00135
2,AAAAAATC,0.102
3,GTCAGGCA,-0.0711
4,ACAAAGAG,-0.0853
5,CAGTCGGC,-0.242
6,ATCTACGG,0.0548
7,CGGATACG,-0.0818
8,CGCGGCAA,0.00803
9,CCTCGTAG,-0.054
10,GTACTTGA,-0.0618
11,ACTACATG,0.0894
12,ATTTCATA,0.223
13,AGTTCGTG,-0.0336
14,CGTTGCTA,0.18
15,CGTGTTGA,-0.0277
16,CTTAACGA,0.0185
17,AGCTATCG,-0.0505
18,AGCTCACT,-0.00134
19,CCAGCCAA,-0.0854
20,TACCGTGA,-0.0612
21,GAGACGGA,0.0388
22,CTTACATC,0.213
